Results as given in paper PMC10163288.
The other results are listed elsewhere or left out.

B1: il10ra_site1_sap_23_mot_HHH_b2_00984_000000042_0001_1_20_H_._HHH_b2_03704_af2_0001_0000100003_0000003_0_0001 (protein)
chain: SSSSSSEVEERVEELLEEARHVDADEMYRLIKEAIELASEYNNDELQKLVMEVLRELMHSSSSSS
B2: il10ra_site1_sap_21_mot_HHH_b2_04680_000000215_0001_1_16_H_._HHH_b2_07708_af2_0001_0000400025_0000003_0_0001 (protein)
chain: SSSSNREEISHRFLRALIEWAEKKGDEEALEMLKRSLRIFVRALNDPELEKLLEELEELLSSSSS
B3: il10ra_site1_normal_mot_HHH_b2_07145_000000158_0001_24_40_H_._HHH_b1_00992_0001_0000100009_0000002_0 (protein)
chain: SSSSEEEFKEFKKVIEELTRLTREGDEEEFERLFERLHRRLEEEGDEVRLLSLEFLYRRDSSSSS
B4: il10ra_site1_normal_mot_HHH_b2_01447_af2_000000258_0001_1_20_H_._HHH_b1_07315_0001_0000100015_0000001_0 (protein)
chain: SSSSDEENKEVMRLVRKASELDQNGDPEEARRVLEEAEQLAEELGNHALRFSLEHLLRLLSSSSS
B5: il10ra_site1_sap_12_mot_HHH_b2_00092_000000181_0001_22_39_H_._HHH_b2_07100_0001_0000300011_0000002_0_0001_af2pred_dldesign_0_af2pred (protein)
chain: SSSSSLNQKITDLIKEALDALAEGKPEEARKLLDEAEELAKKAKSPIMEHAIAAARRAVESSSSS
B6: il10ra_site1_normal_mot_HHH_b2_02053_af2_000000006_0001_3_19_H_._HHH_b1_01295_af2_0001_0000300014_0000002_0 (protein)
chain: SSSSSDLSEEIYELIREALELRARGNPEEAEEVLERARELAEELGSEWLLRQIEFILRLLSSSSS
B7: il10ra_site1_normal_mot_HHH_b2_07521_000000141_0001_20_37_H_._HHH_b1_07534_0001_0000100004_0000001_1_af2pred_0001 (protein)
chain: SSSSSDEEFIELSLKFLKFLLEQGDERAAKIIFHAIEELIKRINDEELQRRLEELEEEIHSSSSS
B8: il10ra_site1_normal_mot_HHH_b2_00277_af2_000000172_0001_1_17_H_._HHH_b2_03853_0001_0000100002_0000001_0_af2pred_dldesign_0_af2pred (protein)
chain: SSSSDPAAVAAEVDALLAEARKEEDREKRSHLLLQAYSVANAANDAALVARVEAEAKRLASSSSS
B9: il10ra_site1_sap_24_mot_HHH_b1_05254_000000006_0001_1_19_H_._HHH_b1_01900_0001_0000400044_0000001_1_0001_af2pred_0001 (protein)
chain: SSSSSEEEERVRLALRFAEWLLEQGDKEAAEFALKAAEEIAKRIGDEELLEKVEELLEELSSSSS
B10: il10ra_site1_sap_15_mot_HHH_b2_02497_000000141_0001_1_20_H_._HHH_b1_08018_0001_0000200009_0000001_0_0001 (protein)
chain: SSSSSSEKEEAEELLEEAERLAEEGNPEEAARLLYEAARLAAKAGDRELAERIVHLFIRLSSSSS
B11: il10ra_site1_sap_10_mot_HHH_b1_08742_000000038_0001_1_20_H_._HHH_b1_02292_0001_0000200017_0000001_0_0001 (protein)
chain: SSSSNASEEVFRILKRVAELDNEGDHEEAEELLEEAERLAREANSDVFLMQVEYLQRLLNSSSSS
B12: il10ra_site1_sap_12_mot_HHH_b1_03270_000000208_0001_21_37_H_._HHH_b2_00361_af2_0001_0000600006_0000001_1_0001 (protein)
chain: SSSSSSRREANEEAWELIREALHIDDPEEAEELLREALRLAEEANSQAFEFAIKLALRQLSSSSS
B13: il10ra_site1_normal_mot_HHH_b1_06789_af2_000000041_0001_1_20_H_._HHH_b2_01909_0001_0000100005_0000001_0 (protein)
chain: SSSSSSVEFLVRQALRAVKNLLEAGDPERAEEAAKIAENLAEQANNPEAQELVERVEKELSSSSS
B14: il10ra_site1_normal_mot_HHH_b2_04681_000000155_0001_43_57_H_._HHH_b1_06444_af2_0001_0000100006_0000002_0 (protein)
chain: SSSSDEEFREYRELVEKISQALNKGDRERARELLEELEEIAEELNNHILKAQVEFLRRLVNSSSS
B15: il10ra_site1_sap_22_mot_39ab2cb694c8b9c1dc7e65c0d672c93e_0001_000000036_0001_53_65_H_._HHH_b1_06179_0001_0000300021_0000001_0_0001_af2pred_0001 (protein)
chain: SSSSSDEDEEVIRLIRRILELLHKGDEEEAEELLERAKRIAEEAGNPIALVILEKIEEELKSSSS
B16: il10ra_site1_normal_mot_cff26900b2948c323735a169404cbef0_0001_1_000000271_0001_18_33_H_._HHH_b1_05248_0001_0000600022_0000002_0 (protein)
chain: SSSSDEYEEILREYEEEAEELGNEDARKMLRLATESAKRAGATEEDLRRQLRYALEQVEKGSSSS
B17: il10ra_site1_normal_mot_HHH_b1_05400_af2_000000077_0001_23_40_H_._HHH_b2_07961_0001_0000200018_0000001_0_af2pred_0001 (protein)
chain: SSSSSEEEERLKELLERLKELLEEGDEEEFIELAFEALRLALRVRDEEVLEELDRLLASLYSSSS
B18: il10ra_site1_sap_16_mot_HHH_b1_05329_000000008_0001_43_56_H_._HHH_b1_00148_af2_0001_0000500018_0000002_0_0001_af2pred_0001 (protein)
chain: SSSSDEREKDLERLIELLKRLVELGDEENARLAARILKELAKFANDPEAEREIEELLQEVTSSSS
B19: il10ra_site1_normal_mot_HHH_b2_06979_000000158_0001_42_57_H_._HHH_b2_06088_af2_0001_0000400027_0000001_0 (protein)
chain: SSSSDLNEELYEILREAAELLANGNPEEARELLEKAEQIAEENNNELLLINARYLFRDVEGSSSS
B20: il10ra_site1_sap_26_mot_HHH_b2_05323_000000159_0001_1_18_H_._HHH_b2_01700_0001_0000300026_0000001_0_0001 (protein)
chain: SSSSDRELREVYELIRKAFELARRGNPEEAEELLEEARRLAEEANSPVFRFAIRALLENLSSSSS
B21: il10ra_site1_normal_mot_HHH_b1_06914_000000280_0001_1_18_H_._HHH_b1_05715_0001_0000300028_0000002_0 (protein)
chain: SSSSDVAHRLYELSRRAAELLANGNPEEAREVVEEAEELAEENNNPVLLFTIRHLLQSINSSSSS
B22: il10ra_site1_normal_mot_HHH_b1_06994_000000193_0001_40_55_H_._HHH_b2_07112_0001_0000100014_0000002_0 (protein)
chain: SSSSSQEEELVRAALELARQAYEAGDPEAARFLLEALLLALEKEGNEELVEEVRELLEELSSSSS
B23: il10ra_site1_sap_23_mot_HHH_b1_01939_000000180_0001_37_52_H_._HHH_b1_04531_0001_0000400025_0000001_0_0001 (protein)
chain: SSSSTQEVFRALEELIQALSEGDEERFEELLEEVRRLAEENNSWVFLWIIEMLERLFEEEHSSSS
B24: il10ra_site1_sap_27_mot_HHH_b1_01481_000000004_0001_1_20_H_._HHH_b2_02141_0001_0000300015_0000001_0_0001 (protein)
chain: SSSSDIEEVMRLIEEASELDQNGNKEEAEKLLEEAEKLAEELGNWALLFAIRHALRVVRNSSSSS
B25: il10ra_site1_sap_17_mot_HHH_b1_07380_000000129_0001_1_20_H_._HHH_b1_06890_0001_0000200026_0000001_0_0001 (protein)
chain: SSSSSEELERYVKLSLRFARWLYEAGDPEAARFVVEAALDTARRENNEELVEELEELLRQLSSSS
B26: il10ra_site1_sap_13_mot_HHH_b2_06664_af2_000000263_0001_19_36_H_._HHH_b1_07898_0001_0000100002_0000001_0_0001 (protein)
chain: SSSSDAEEVVELLFRAIELLYRGDKEEAEELVEEAKEIAEESNDPELQRYVEIAEHFVRAHSSSS
B27: il10ra_site1_normal_mot_HHH_b2_00800_af2_000000047_0001_1_20_H_._HHH_b1_06326_0001_0000400037_0000001_0 (protein)
chain: SSSSQEAYEASREAIEEALELYREGNPEEAREVLEELLELLRELGNENASATVEVLLRLLSSSSS
B28: il10ra_site1_sap_24_mot_HHH_b2_04050_000000291_0001_1_20_H_._HHH_b2_07950_af2_0001_0000400018_0000002_0_0001 (protein)
chain: SSSSSSQEALELSLEAFRAALRGDEERARELIEEAEELAQEEGDERLLKILEDLLKALSSSSSSS
B29: il10ra_site1_sap_18_mot_104c758fc23488854646035ccb2100c6_0001_000000282_0001_15_29_H_._2760df52dd5e0aaeaf25f6a5db4fc44c_0001_1_0001_0000200005_0000001_0_0001 (protein)
chain: SSSSSTQEVYEALERLAKLAHEGDEEEFKEVYEEARRLIEEEGNRLFQVQLEFLEELFNSSSSSS
B30: il10ra_site1_sap_23_mot_HHH_eva_0376_af2_000000153_0001_25_41_H_._HHH_b1_00695_0001_0000100002_0000001_0_0001 (protein)
chain: SSSSSDEEVEEEVERLLEEAKEIDDPRELSRLLQEAVRFAIQLQDAELLQKVWEVVHRLASSSSS
B31: il10ra_site1_sap_24_mot_HHH_b1_04771_000000013_0001_40_56_H_._HHH_b2_02918_af2_0001_0000100007_0000001_0_0001 (protein)
chain: SSSSDDEERVKQAIRFARWLLENGDKEAAKRIVEAAQDIARKGGNEELVQELEELEEEIKSSSSS
B32: il10ra_site1_normal_mot_HHH_b1_03859_af2_000000004_0001_44_57_H_._HHH_b2_07280_0001_0000300015_0000001_0 (protein)
chain: SSSSSSDEERYVKLALRFAKRIEDEEARRFILRAAEEIAKRANDEELLEEVEEVIRELSSSSSSS
B33: il10ra_site1_normal_mot_HHH_b1_05056_000000217_0001_1_20_H_._HHH_b2_02585_0001_0000100003_0000001_0 (protein)
chain: SSSSSDEEEREEVEELLEEAKRIEDRREVAELLQKATHLALRLQDPELLREVWRVVQEWASSSSS
B34: il10ra_site1_normal_mot_HHH_b2_07336_af2_000000224_0001_1_17_H_._HHH_b2_00864_0001_0000100004_0000001_0_af2pred_dldesign_0_af2pred (protein)
chain: SSSSADEVAELLREASRLLFEGELEKALELVEKARELAEAAGDPELIKAVDIVENAVLANSSSSS
B35: il10ra_site1_sap_16_mot_39a7b8d0c4c3fc04bafbda6ce6101d3a_0001_1_af2_000000014_0001_34_48_H_._HHH_b1_05621_0001_0000900026_0000001_0_0001 (protein)
chain: SSSSDEEEERIEELLEEAERLIEEGNPEEALEILLEATRLALKLGNEELLQRVWELIKRLESSSS
B36: il10ra_site1_normal_mot_HHH_b1_07527_000000076_0001_1_15_H_._HHH_b2_06947_af2_0001_0000400043_0000001_0 (protein)
chain: SSSSNAADEVYELIREAMELLRNGNPEEAKEVLEEAERLAEENNNILLLWQIEFALREIDSSSSS
B37: il10ra_site1_sap_28_mot_HHH_b2_08004_000000101_0001_1_17_H_._HHH_b1_04916_af2_0001_0000100001_0000001_0_0001_af2pred_0001 (protein)
chain: SSSSTAVEEVLRAIERVLELLHRGDEEEAEKLAEEALEIAREAGNLNLRALLEAMLRRARSSSSS

target: il10ra, Q13651; test: yeast display titration

Apparent Kd, inactive:
B1 no binding seen
B2 no binding seen
B3 no binding seen
B4 no binding seen
B5 no binding seen
B6 no binding seen
B7 no binding seen
B8 no binding seen
B9 no binding seen
B10 no binding seen
B11 no binding seen
B12 no binding seen
B13 no binding seen
B14 no binding seen
B15 no binding seen
B16 no binding seen
B17 no binding seen
B18 no binding seen
B19 > 583 nM
B20 no binding seen
B21 no binding seen
B22 no binding seen
B23 no binding seen
B24 no binding seen
B25 no binding seen
B26 no binding seen
B27 no binding seen
B28 no binding seen
B29 no binding seen
B30 no binding seen
B31 no binding seen
B32 no binding seen
B33 no binding seen
B34 no binding seen
B35 no binding seen
B36 no binding seen
B37 no binding seen

Reprinted from above for reference:
Apparent Kd, inactive:
B7 no binding seen
B8 no binding seen
B9 no binding seen
B10 no binding seen
B11 no binding seen
B12 no binding seen
B13 no binding seen
B14 no binding seen
